Reference: PubChem BioAssay AID200 (DTP/NCI, 2004)
The list is a part of this screen's results and no random one: it gathers tests that were run many times, whatever their T/C, doses with no T/C, and many T/C values between a quarter and a half above the control. Further doses and runs are listed elsewhere. T/C: endpoint of the treated group in % of that of the vehicle group. Some entries give survivors of the animals treated and no T/C: the source files T/C as zero there, which appears to mark a toxic dose or a test without result, not a measured value. Some survivor counts are full or nearly so, which does not show that the dose was tolerated: the source hardly ever lists a survival T/C far under the control, and the zero likely stands for such cases as well. Survivors were counted at the toxicity check, usually on the fifth day, unless a day is given; later deaths do not show. Schedules are NCI's codes, taken here to give the interval after Q, in days (D) or hours (H), and the number of doses after X. Some doses were run more than once; the values are given in rising order. Where survival is the endpoint, this PubChem deposit counts one and a half times the control or more as active, and values a quarter to a half above the control carry no call in these data; other NCI protocols may use other cut-offs. Some T/C values are followed by the survivors on the day toxicity was checked, most often the fifth; where none is given, no animal had died by that day. Where a SMILES comes first, the peptide text is derived from it. The star is where a group is joined. Cbz = O=C(OCc1ccccc1)*

Tested on: B6C3F1 mice, B16 melanoma ip, median survival T/C
Experiment: NCI In Vivo Anticancer Drug Screen. Data for tumor model B16 Melanoma (intraperitoneal) in B6C3F1 mice
Conditions: T/C endpoint: median survival time, higher T/C = longer survival
Procedure, shortened: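 Transplantable tumor in mice; treated vs vehicle control groups; survival or tumor size measured; value = T/C ratio.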

[1] = dose: 100.0 mg/kg/injection, schedule: Q01DX001 (ip), vehicle: water
[2] = dose: 25.0 mg/kg/injection, schedule: Q01DX009 (ip), vehicle: saline with Tween-80
[3] = dose: 50.0 mg/kg/injection, schedule: Q01DX009 (ip), vehicle: saline with Tween-80
[4] = dose: 100.0 mg/kg/injection, schedule: Q01DX009 (ip), vehicle: saline with Tween-80
[5] = dose: 200.0 mg/kg/injection, schedule: Q01DX009 (ip), vehicle: saline with Tween-80
[6] = dose: 200.0 mg/kg/injection, schedule: Q01DX009 (ip), vehicle: saline
[7] = dose: 400.0 mg/kg/injection, schedule: Q01DX009 (ip), vehicle: saline
[8] = dose: 200.0 mg/kg/injection, schedule: Q01DX009 (ip), vehicle: Klucel (hydroxypropylcellulose) (HPC)
[9] = dose: 12.0 mg/kg/injection, schedule: Q01DX009 (ip), vehicle: saline with Tween-80
[10] = dose: 24.0 mg/kg/injection, schedule: Q01DX009 (ip), vehicle: saline with Tween-80
[11] = dose: 200.0 mg/kg/injection, schedule: Q01DX009 (ip), vehicle: distilled water + alcohol
[12] = dose: 0.5 mg/kg/injection, schedule: Q01DX009 (ip), vehicle: saline with Tween-80
[13] = dose: 2.0 mg/kg/injection, schedule: Q01DX009 (ip), vehicle: distilled water + Tween-80
[14] = dose: 32.0 mg/kg/injection, schedule: Q01DX009 (ip), vehicle: saline with Tween-80
[15] = dose: 64.0 mg/kg/injection, schedule: Q01DX009 (ip), vehicle: saline with Tween-80

What does the source list for `COc1cccc2c1C(=O)c1c(O)c3c(c(O)c1C2=O)C[C@@](O)(c1csc(N)n1)C[C@@H]3OC1CC(N)C(O)C(C)O1` (stereo not given in full)?
T/C (dose: 25.0 mg/kg/injection, schedule: Q01DX001 (ip), vehicle: water): 144 % of control; T/C (dose: 50.0 mg/kg/injection, schedule: Q01DX001 (ip), vehicle: water): 129 and 146 % of control; T/C [1]: 145 % of control; survivor count [1]: 0 of 10; survivor count (dose: 200.0 mg/kg/injection, schedule: Q01DX001 (ip), vehicle: water): 0 of 10 and 2 of 10; survivor count (dose: 400.0 mg/kg/injection, schedule: Q01DX001 (ip), vehicle: water): 0 of 10

For `Clc1ccc(C2SC=Cc3ccccc32)cc1` (stereo not given), which survivor count (dose: 800.0 mg/kg/injection, schedule: Q01DX009 (ip), vehicle: Klucel (hydroxypropylcellulose) (HPC)) is on record?
Its survivor count is 0 of 10.

For `COc1cc2cc(c1Cl)N(C)C(=O)CC(OC(=O)C(C)N(C)C(=O)C(C)C)C1(C)OC1C(C)C1CC(O)(NC(=O)O1)C(OC)/C=C/C=C(C)C2OC` (stereo not given), which T/C (dose: 1.0 micrograms/kg/injection, schedule: Q01DX009 (ip), vehicle: Klucel (hydroxypropylcellulose) (HPC)) is on record?
The T/C was 133 % of control.

And the T/C (dose: 2.0 micrograms/kg/injection, schedule: Q01DX009 (ip), vehicle: Klucel (hydroxypropylcellulose) (HPC))?
Its T/C is 140 % of control.

And the survivor count (dose: 32.0 micrograms/kg/injection, schedule: Q01DX009 (ip), vehicle: Klucel (hydroxypropylcellulose) (HPC))?
Its survivor count is 9 of 10.

What about the survivor count (dose: 64.0 micrograms/kg/injection, schedule: Q01DX009 (ip), vehicle: Klucel (hydroxypropylcellulose) (HPC)) of the same molecule?
Its survivor count is 5 of 10 and 10 of 10.

With `O=Cc1c(O)c2ccccc2[nH]c1=O` as the molecule, how does the T/C [2] read?
The T/C was 136 % of control.

What about the T/C [3] of the same molecule?
Its T/C is 132 and 134 % of control.

And the T/C [4]?
The T/C was 141 % of control.

And the survivor count [4]?
The survivor count was 8 of 10.

And the survivor count [5]?
Its survivor count is 3 of 10 and 6 of 10.

Which survivor count (dose: 40.0 mg/kg/injection, schedule: Q01DX009 (ip), vehicle: suspension in saline) does the source give for `CC1=CC2c3cccc4[nH]cc(c34)CC2N(C)C1` (stereo not given) here?
Its survivor count is 2 of 10.

For `NC1=NC(=O)N2CC12` (stereo not given), which survivor count [6] is on record?
The survivor count was 9 of 10.

And the survivor count [7]?
The survivor count was 0 of 10.

Which T/C [8] does the source give for `CC(NC(=O)OCc1ccccc1)C(=O)NC(CC(N)=O)C(=O)O` (stereo not drawn) (Cbz-Ala-Asn-OH; configuration not given here) here?
The T/C was 127 % of control.

Which T/C (dose: 3.12 mg/kg/injection, schedule: Q01DX009 (ip), vehicle: saline with Tween-80) does the source give for `Nc1nc(N)c2c(ccc3c2ccn3Cc2cccc([N+](=O)[O-])c2)n1` here?
Its T/C is 125 % of control.

And the survivor count (dose: 6.25 mg/kg/injection, schedule: Q01DX009 (ip), vehicle: saline with Tween-80)?
The survivor count was 10 of 10.

What about the T/C [9] of the same molecule?
The T/C was 146 % of control.

And the survivor count [9]?
Its survivor count is 10 of 10.

What about the survivor count (dose: 12.5 mg/kg/injection, schedule: Q01DX009 (ip), vehicle: saline with Tween-80) of the same molecule?
Its survivor count is 10 of 10.

And the survivor count [10]?
Its survivor count is 10 of 10.

What about the survivor count [2] of the same molecule?
The survivor count was 8 of 10.

Which survivor count (dose: 50.0 mg/kg/injection, schedule: Q01DX009 (ip), vehicle: Klucel (hydroxypropylcellulose) (HPC)) does the source give for `O=C(O)C1C2CC3C(C2)C31.[Ag]` (stereo not given) here?
Its survivor count is 2 of 10.

How did the survivor count [11] turn out when `Cc1cc(=NO)cc(C)n1O` was run?
Its survivor count is 10 of 10.

With `C=C1CCOC2(C(O)C(C)(O)CO)NC(=O)C1(O)NC2=O` (stereo not given) as the molecule, how does the survivor count [7] read?
The survivor count was 9 of 10.

With `CC(C)(C)C(=O)Oc1ccc(N=C(N)N)cc1` as the molecule, how does the survivor count [6] read?
Its survivor count is 3 of 10.

Which results are given for `CC(C)c1cc(C(=O)O)c(O)c(C(C)C)c1.CC(C)c1cc(C(=O)O)c(O)c(C(C)C)c1.[Cu]`?
survivor count [2]: 10 of 10; survivor count [3]: 8 of 10; survivor count [4]: 0 of 10

With `CCC(C)Nc1ccc(N)cc1` (stereo not given) as the molecule, how does the survivor count (dose: 24.0 mg/kg/injection, schedule: Q01DX009 (ip), vehicle: Klucel (hydroxypropylcellulose) (HPC)) read?
The survivor count was 5 of 10.

How did the T/C [8] turn out when `COc1cc(OC)c(OC)cc1/C=C\c1ccnc2ccccc12` was run?
Its T/C is 137 % of control.

And the survivor count (dose: 400.0 mg/kg/injection, schedule: Q01DX009 (ip), vehicle: Klucel (hydroxypropylcellulose) (HPC))?
The survivor count was 0 of 8.

What does the source list for `CN=C(N)N/N=C(\c1ccccc1)c1ccc(Br)cc1`?
survivor count [2]: 10 of 10; survivor count [3]: 7 of 10

Which survivor count (dose: 0.25 mg/kg/injection, schedule: Q01DX009 (ip), vehicle: saline with Tween-80) does the source give for `CO[C@H]1Nc2c(ccc(C)c2O)C(=O)N2C=C(/C=C/C(N)=O)C[C@@H]12` here?
Its survivor count is 10 of 10.

And the T/C [12]?
Its T/C is 147 % of control.

What about the survivor count [12] of the same molecule?
The survivor count was 9 of 10.

What about the survivor count (dose: 0.8 mg/kg/injection, schedule: Q04DX003 (ip), vehicle: DMSO) of the same molecule?
Its survivor count is 8 of 10.

And the survivor count (dose: 1.0 mg/kg/injection, schedule: Q01DX009 (ip), vehicle: saline with Tween-80)?
The survivor count was 0 of 10 and 1 of 10.

`CC(=O)CC(=O)CCC(=O)O` was tested. Which survivor count [6] did it give?
The survivor count was 10 of 10.

And the survivor count [7]?
The survivor count was 8 of 10.

Which survivor count (dose: 100.0 mg/kg/injection, schedule: Q01DX009 (ip), vehicle: Klucel (hydroxypropylcellulose) (HPC)) does the source give for `O=C1CCCCCC2=NC12` (stereo not given) here?
The survivor count was 0 of 10.

Which survivor count [11] does the source give for `ClCCCN1CCN(CCCCl)CC1` here?
Its survivor count is 0 of 10 and 3 of 10.

With `Nc1ncnc2c1cnn2Cc1ccc(Cl)cc1` as the molecule, how does the survivor count [5] read?
The survivor count was 9 of 10.

With `COC1CC(C)C(OC)C2=CC(=O)C=C(NC(=O)/C(C)=C/C=C\C(C)C(OC(N)=O)/C(C)=C\C(C)C1OC)C2=O` (stereo not given) as the molecule, how does the T/C (dose: 2.5 mg/kg/injection, schedule: Q01DX009 (ip), vehicle: saline + alcohol) read?
The T/C was 128 % of control.

What about the T/C (dose: 5.0 mg/kg/injection, schedule: Q01DX009 (ip), vehicle: saline + alcohol) of the same molecule?
Its T/C is 141 % of control.

And the survivor count (dose: 10.0 mg/kg/injection, schedule: Q01DX009 (ip), vehicle: saline + alcohol)?
The survivor count was 7 of 10.

What about the survivor count (dose: 20.0 mg/kg/injection, schedule: Q01DX009 (ip), vehicle: saline + alcohol) of the same molecule?
The survivor count was 0 of 10 and 6 of 10.

Which T/C (dose: 0.25 mg/kg/injection, schedule: Q01DX009 (ip), vehicle: distilled water + Tween-80) does the source give for `CC(C)=CC(=O)OC1C2C(C)=CC(=O)C(O)C2(C)C2C3(O)OCC24C(CC(=O)OC14)C(C)C3O` (stereo not given) here?
Its T/C is 138 % of control.

What about the T/C (dose: 1.0 mg/kg/injection, schedule: Q01DX009 (ip), vehicle: distilled water + Tween-80) of the same molecule?
Its T/C is 120 [9 of 10 alive], 152, 164, 186 % of control.

And the T/C [13]?
Its T/C is 162 [9 of 10 alive], 163 [9 of 10 alive], 166 % of control [9 of 10 alive].

And the survivor count [13]?
The survivor count was 9 of 10.

What about the survivor count (dose: 4.0 mg/kg/injection, schedule: Q01DX009 (ip), vehicle: distilled water + Tween-80) of the same molecule?
Its survivor count is 1 of 10 and 8 of 10.

What about the survivor count (dose: 8.0 mg/kg/injection, schedule: Q01DX009 (ip), vehicle: distilled water + Tween-80) of the same molecule?
The survivor count was 0 of 10.

For `C1OC1CN1CCN(CC2CO2)CC1` (stereo not given), which T/C (dose: 8.0 mg/kg/injection, schedule: Q01DX009 (ip), vehicle: saline with Tween-80) is on record?
Its T/C is 125 % of control.

What about the T/C [14] of the same molecule?
The T/C was 130 % of control.

What about the survivor count [15] of the same molecule?
Its survivor count is 10 of 10.

`CN1C(=O)C(=Cc2ccc(O)cc2)C(=O)N(C)C1=O` was tested. Which survivor count (dose: 400.0 mg/kg/injection, schedule: Q01DX009 (ip), vehicle: saline with Tween-80) did it give?
Its survivor count is 8 of 10.

Which survivor count (dose: 200.0 mg/kg/injection, schedule: Q01DX009 (ip), vehicle: water) does the source give for `CC(=O)NC(C=O)OCC=O` (stereo not given) here?
The survivor count was 7 of 10.

How did the T/C (dose: 6.0 mg/kg/injection, schedule: Q01DX009 (ip), vehicle: saline with Tween-80) turn out when `CC12CCC3C(CCC4CC(OC(=O)Cc5ccc(N(CCCl)CCCl)cc5)CCC43C)C1CCC(=O)N2` (stereo not given) was run?
Its T/C is 149 % of control.

What about the survivor count [10] of the same molecule?
Its survivor count is 10 of 10.

How did the T/C (dose: 16.0 mg/kg/injection, schedule: Q01DX009 (ip), vehicle: saline with Tween-80) turn out when `CCOC(=O)C(CC(C)C)NC(=O)C(Cc1ccc(N(CCCl)CCCl)cc1)NC(C)=O` (stereo not given) was run?
The T/C was 125 % of control.

What about the T/C [14] of the same molecule?
Its T/C is 125 and 137 % of control.

What about the survivor count [15] of the same molecule?
The survivor count was 9 of 10.

And the survivor count (dose: 128.0 mg/kg/injection, schedule: Q01DX009 (ip), vehicle: saline with Tween-80)?
The survivor count was 3 of 10 and 6 of 10.
